Reference: PubChem BioAssay AID504444 (National Center for Advancing Translational Sciences (NCATS), 2011)
About 7,500 (2.1%) of roughly 360,000 compounds were called active. This list was built around the results that the source calls inconclusive (neither active nor inactive); the mix of calls is not that of the screen. Calls follow the shape of the dose curve; as a rule, active = well fitted inhibition curve with a large enough effect; inconclusive = small, poorly fitted or top-dose-only effect, or effect the other way; inactive = flat fitted curve, though single readings scatter. Where the call is inconclusive, the potency comes from a doubtful curve fit.

Assay: Nrf2 qHTS screen for inhibitors; also: nearly all actives have a fitted effect of over 60% in size
Conditions: A549 ARE-Fluc reporter, luciferase luminescence, 18-24 h; activity change, negative = inhibition: at 46 µM (top of the series)
Outline: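 Reporter: ARE-Fluc in A549. Exposure: 18-24 h, 37 °C, 5% CO2, 5% FBS OPTI-MEM. Readouts: fluorescent cytotoxicity (CellTiter-Fluor), then luminescent Nrf2 signal after BugLite.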
% is scaled to controls: 0 for no effect and ±100 for the full control effect; potency is read from the fitted curve at half-maximal effect.

Compound	Potency	activity change, negative = inhibition
COC(=O)c1sc(NC(=O)COc2ccccc2)nc1C	inconclusive: 2.06 µM [activator, full curve]	
COc1ccc(NCc2cccn2-c2nnc(N3CCOCC3)s2)c(OC)c1	inconclusive: 16.4 µM [activator, single point]	
CCn1c2ccccc2c2cc(/C=N/n3cn[nH]c3=S)ccc21	inconclusive: 32.6 µM [falling, single point]	
O=C(CCNc1cccc(Cl)c1)c1cccs1	inconclusive: 29.1 µM [activator, single point]	
CCOc1ccc(C(=O)CCc2nc3ccccc3s2)cc1	inconclusive: 0.146 µM [falling, full curve, poor fit]	
CC(=O)N1CCC(N(Cc2ccco2)C(=O)Nc2cccc(C)c2)CC1	inconclusive: 8.2 µM [activator, partial curve]	
COc1cc2nc(CN(C)Cc3ccc(SC)cc3)[nH]c(=O)c2cc1OC		inactive: -12.8%
Cc1cccc(NC(=O)c2cnn(-c3ccccc3)c2-n2cccc2)c1C	inconclusive: 29.1 µM [falling, single point]	
Cc1ccc(N(C)S(=O)(=O)c2cccc(C(=O)OCC(=O)c3c(N)n(C)c(=O)n(C)c3=O)c2)cc1	inconclusive: 29.1 µM [falling, single point]	
Brc1ccc(-c2csc(NC3=NCCCCC3)n2)cc1	inconclusive: 18.4 µM [activator, partial curve, poor fit]	
CN(Cc1ccccc1)C(=O)CCSc1nc(-c2ccc3c(c2)OCO3)cc(C(F)(F)F)n1	inconclusive: 23.1 µM [falling, single point]	
O=c1c2ccccc2nc(COc2ccccc2)n1/N=C/c1cc([N+](=O)[O-])ccc1O		inactive: -22.4%
COc1cccc(/C=N/NC(=S)Nc2cccc(S(=O)(=O)N(C)C)c2)c1	inconclusive: 14.6 µM [falling, partial curve, poor fit]	
COc1ccc(-c2n[nH]c(=S)n2Cc2ccccc2)cc1	inconclusive: 29.1 µM [falling, single point]	
COc1ccc(Cl)cc1NS(=O)(=O)c1cc(-c2cc(C)no2)ccc1C	inconclusive: 16.4 µM [falling, partial curve]	
O=C(CCCCCN1C(=O)[C@@H]2Cc3ccccc3CN2C1=O)Nc1cccc(F)c1	inconclusive: 10.3 µM [falling, partial curve, poor fit]	
Cc1ccc(C)c(/C=N/NC(=S)NC(C)C)c1	inconclusive: 20.6 µM [falling, partial curve, poor fit]	
Cc1cc(C)c(Cn2c(C)c(CNCCCc3ccccc3)c(C(=O)O)c2C)c(C)c1		inactive: 13.1%
CCCCN(C(=O)c1cc(S(=O)(=O)N2CCOCC2)ccc1F)c1c(N)n(CCCC)c(=O)[nH]c1=O		inactive: 4.53%
O=C(NCCCN1CCN(CCCNC(=O)c2ccccc2F)CC1)c1ccccc1F	inconclusive: 29.1 µM [activator, single point]	
Cc1ccccc1C(=O)OC(C)C(=O)NCc1ccc2c(c1)OCO2 (stereo not drawn)	inconclusive: 32.6 µM [falling, partial curve, poor fit]	
CC(NC(=O)/C(C#N)=C/c1ccc(N2CCOCC2)cc1)c1ccccc1 (stereo not drawn)	inconclusive: 4.11 µM [activator, full curve]	

Already shown: entries from further up.
Compound	Potency	activity change, negative = inhibition
Cc1cccc(NC(=O)c2cnn(-c3ccccc3)c2-n2cccc2)c1C	inconclusive: 29.1 µM [falling, single point]	
Cc1ccc(N(C)S(=O)(=O)c2cccc(C(=O)OCC(=O)c3c(N)n(C)c(=O)n(C)c3=O)c2)cc1	inconclusive: 29.1 µM [falling, single point]	
Brc1ccc(-c2csc(NC3=NCCCCC3)n2)cc1	inconclusive: 18.4 µM [activator, partial curve, poor fit]	

Next part.

Compound	Potency	activity change, negative = inhibition
CC(=O)NC(CC(=O)NCCCn1ccc2ccccc21)c1ccccc1 (stereo not drawn)		inactive: 3.21%
c1ccc(CSC2=NCCS2)cc1	inconclusive: 29.1 µM [activator, single point]	
Cc1ccc(N2Cc3ccccc3C2=S)cc1	inconclusive: 8.2 µM [activator, partial curve]	
CC(C)(O)C#Cc1ccc(CN2CCN(Cc3ccsc3)C(CCO)C2)cc1 (stereo not drawn)	inconclusive: 6.51 µM [activator, partial curve, poor fit]	
COc1ccc(NC(=O)CCN2C(=O)C3C4C=CC(C4)C3C2=O)cc1 (stereo not drawn)	inconclusive: 29.1 µM [activator, single point]	
COC(=O)c1ccc2c(=O)n(-c3ccccc3)c(=S)[nH]c2c1	inconclusive: 23.1 µM [falling, single point]	
O=C(Cn1c(=S)[nH]c2ccccc2c1=O)N1CCc2ccccc2C1	inconclusive: 6.51 µM [activator, single point]	
Cc1ccn2cc(-c3ccc(Br)cc3)nc2c1	inconclusive: 0.092 µM [activator, full curve, poor fit]	
COc1ccc(NC(=O)c2c(C)nn(Cc3ccccc3)c2Cl)cc1S(=O)(=O)N1CCOCC1	active: 20.6 µM	
CC(=O)N1c2ccc(S(=O)(=O)NCCC(=O)NCCc3ccc(C)cc3)cc2CC1C (stereo not drawn)	active: 16.4 µM	
CC(/C=C/c1ccco1)=N\NC(=O)COc1ccc(C)c(C)c1	inconclusive: 20.6 µM [activator, single point]	
Cc1cc(Cl)ccc1OCC(=O)Nc1ccccc1C(=O)N1CCOCC1		inactive: 13.4%
O=C1CC(C(=O)N(c2ccc(F)cc2)C(C(=O)NC2CCCC2)c2ccccn2)CS1 (stereo not drawn)		inactive: 18.8%
C=CCNC(=S)NNC(=O)COc1ccc2cc(Br)ccc2c1	inconclusive: 4.11 µM [activator, partial curve]	
O=C(Nc1cccc(C(F)(F)F)c1)Oc1ccc(Cl)c2cccnc12	inconclusive: 29.1 µM [falling, single point]	
CC(=O)c1cccc(NC(=O)CCS(=O)(=O)c2cc(Br)cc3c2N(C(=O)C2CC2)CC3)c1		inactive: 2.61%
O=C(CSCCc1ccccn1)Nc1ccccn1	inconclusive: 16.4 µM [activator, partial curve]	
Oc1ccc(N=Nc2nc(-c3ccccc3)c(-c3ccccc3)[nH]2)cc1	inconclusive: 23.1 µM [falling, single point]	
CC(C)n1c(O)c(N=NC(=O)CNC(=O)CCc2ccccc2)c2ccccc21	inconclusive: 20.6 µM [falling, single point]	
CCOC(=O)c1[nH]c2ccccc2c1NC(=O)NC(C)C		inactive: -3.36%
CC(C)(C)NC(=O)c1ccc(COc2ccc(Cl)cc2Cl)o1	inconclusive: 29.1 µM [falling, single point]	
